{
  "source": "paper PMC11233548",
  "about": "(Communications Biology, 2024)",
  "test": "Circular dichroism spectra",
  "type": "physicochemical",
  "settings": "25 μM acetylated peptide, 1x PBS pH 7.5, 20 °C",
  "data": [
    {"substance": "Ac-LLRPTAASQSRALGPGAPGGSSRSSLRSRWGRFLLQRGSWTGPRCWPRGFQS-NH2 (N-terminus and C-terminus assumed) [L5UR]", "values": [
      {"measurement": "antiparallel β-sheet content", "result": "~ 25%"},
      {"measurement": "secondary structure", "result": "mostly random coil"}
    ]}
  ]
}
